Assay results as given in paper PMC10864366, “Aggresome formation promotes ASK1/JNK signaling activation and stemness maintenance in ovarian cancer” (Nature Communications, 2024).
Results are given in words; binding and its absence hold for the method and conditions named. Binding seen in cells or lysates may run through a third protein. Some binding calls cover weakened binding; strength is not graded here. Sequences can lack the tags named with a protein.

T1: Flag-OTUD1 (aa 1–286 truncation) (UniProt Q5VV17)
T1 sequence: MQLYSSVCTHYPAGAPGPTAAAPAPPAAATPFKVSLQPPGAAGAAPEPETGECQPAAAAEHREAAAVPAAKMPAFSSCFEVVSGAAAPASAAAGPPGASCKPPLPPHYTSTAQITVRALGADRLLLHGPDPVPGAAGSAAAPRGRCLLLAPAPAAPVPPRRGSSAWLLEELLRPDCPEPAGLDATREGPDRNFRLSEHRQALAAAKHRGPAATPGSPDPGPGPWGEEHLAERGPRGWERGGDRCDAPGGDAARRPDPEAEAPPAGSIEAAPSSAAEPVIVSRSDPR

T2: Flag-OTUD1 (aa 287–481 truncation) (UniProt Q5VV17)
T2 sequence: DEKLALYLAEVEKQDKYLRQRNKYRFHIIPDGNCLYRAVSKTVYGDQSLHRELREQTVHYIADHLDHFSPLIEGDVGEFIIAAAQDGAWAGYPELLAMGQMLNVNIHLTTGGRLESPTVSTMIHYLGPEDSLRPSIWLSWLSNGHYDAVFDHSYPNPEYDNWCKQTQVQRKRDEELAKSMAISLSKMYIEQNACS


How the values were obtained:
[1] = biological target: T1, Flag-OTUD1 (aa 1–286 truncation); experiment: co-IP; 293T cells co-transfected with Flag- and HA-tagged constructs; lysate sonicated; anti-FLAG or anti-HA magnetic beads, 6–8 h at 4 °C; immunoblot; for the ASK1 N-terminus with co-transfected Flag-OTUD1 WT or M1
[2] = biological target: T2, Flag-OTUD1 (aa 287–481 truncation); experiment: as above

binding [1]	binding [2]	Binder
binds		Flag-OTUD1 (aa 1–286 truncation) (domain or fragment, UniProt Q5VV17 1-286) MQLYSSVCTHYPAGAPGPTAAAPAPPAAATPFKVSLQPPGAAGAAPEPETGECQPAAAAEHREAAAVPAAKMPAFSSCFEVVSGAAAPASAAAGPPGASCKPPLPPHYTSTAQITVRALGADRLLLHGPDPVPGAAGSAAAPRGRCLLLAPAPAAPVPPRRGSSAWLLEELLRPDCPEPAGLDATREGPDRNFRLSEHRQALAAAKHRGPAATPGSPDPGPGPWGEEHLAERGPRGWERGGDRCDAPGGDAARRPDPEAEAPPAGSIEAAPSSAAEPVIVSRSDPR
	no binding	Flag-OTUD1 (aa 287–481 truncation) (domain or fragment, UniProt Q5VV17 287-481) DEKLALYLAEVEKQDKYLRQRNKYRFHIIPDGNCLYRAVSKTVYGDQSLHRELREQTVHYIADHLDHFSPLIEGDVGEFIIAAAQDGAWAGYPELLAMGQMLNVNIHLTTGGRLESPTVSTMIHYLGPEDSLRPSIWLSWLSNGHYDAVFDHSYPNPEYDNWCKQTQVQRKRDEELAKSMAISLSKMYIEQNACS
